Values quoted from earlier work, collected in patent US20140328930A1, “Pharmaceutical Compositions” (Alpharma Pharmaceuticals, LLC, priority 2007, published 2014).
Where a name gives a salt, the structure may show the parent alone.

Conditions: cited from earlier work

SMILES: O=C1CC[C@@]2(O)[C@H]3Cc4ccc(O)c5c4[C@@]2(CCN3CC2CC2)[C@H]1O5 [hydrochloride salt of naltrexone]
- Solubility in water: about 100 mg/cc
